PubChem BioAssay AID1259405 | NCATS – 2018
Aim: 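Silenced genes that increase secreted GFP made by CHO cells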 (primary screen). System: Chinese hamster CHO-K1 ovary cells with stable secreted eGFP expression. Reagent: single siRNA against mouse genes, 0.8 pmol siRNA per well (2 µl of 400 nM stock). Timing: 3 days. Detection: 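Percent of the per-plate non-targeting control median for intracellular GFP per well by laser scanning cytometry and for cell viability by ATP luminescence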. Direction: GFP, % of control: higher = more GFP per well, higher productivity; viability (ATP), % of control: higher = more viable cells (more ATP). Active means: 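a knock-down is called active if GFP reaches 120% or more of non-targeting control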.
Here is an unselected part of about 50,000 reagents tested. Over the whole deposit, about 4,000 (8%) got an active call. 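Mouse siRNA library applied to hamster cells; one well for each siRNA.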 Unmarked entries are inactive. The numbers tell different reagents against one gene apart. Reagent sequences are not shown.

no.	target gene	siRNA no.	GFP, % of control	viability (ATP), % of control
1	Large2 (GeneID 228366)	1	98.5	95.4
2	Large2 (GeneID 228366)	2	67	65.6
3	Large2 (GeneID 228366)	3	86.5	58
4	Prxl2b (GeneID 66469)	1	147 (active)	105
5	Prxl2b (GeneID 66469)	2	59.1	31.6
6	Prxl2b (GeneID 66469)	3	61.9	74.1
7	Chrna5 (GeneID 110835)	1	23.7	51.3
8	Chrna5 (GeneID 110835)	2	168 (active)	99
9	Chrna5 (GeneID 110835)	3	23.3	24.2
10	Ring1 (GeneID 19763)	1	65.5	84.2
11	Ring1 (GeneID 19763)	2	93.1	72.4
12	Ring1 (GeneID 19763)	3	81	76.2
13	Or1j13 (GeneID 258952)	1	91.3	94
14	Or1j13 (GeneID 258952)	2	79.9	78.9
15	Or1j13 (GeneID 258952)	3	42.5	73.4
16	Cxcr3 (GeneID 12766)	1	111	80.1
17	Cxcr3 (GeneID 12766)	2	78.1	61.5
18	Cxcr3 (GeneID 12766)	3	32	44.3
19	Irag1 (GeneID 17540)	1	87	118
20	Irag1 (GeneID 17540)	2	76.1	93.5
21	Irag1 (GeneID 17540)	3	78.3	60.1
22	Celsr3 (GeneID 107934)	1	73.1	69.4
23	Celsr3 (GeneID 107934)	2	71.8	81.5
24	Celsr3 (GeneID 107934)	3	100	94.1
25	Aqp5 (GeneID 11830)	1	83.2	73.2
26	Aqp5 (GeneID 11830)	2	84.3	81.6
27	Aqp5 (GeneID 11830)	3	154 (active)	65.6
28	Mmp25 (GeneID 240047)	1	66.8	76
29	Mmp25 (GeneID 240047)	2	55.2	62.8
30	Hgs (GeneID 15239)	1	134 (active)	79.8
31	Hgs (GeneID 15239)	2	59.8	49.4
32	Sprr2j-ps (GeneID 20764)	1	80.9	46.9
33	Sprr2j-ps (GeneID 20764)	2	106	104
34	Sprr2j-ps (GeneID 20764)	3	101	86.6
35	H2bc21 (GeneID 319190)	1	61.4	84
36	H2bc21 (GeneID 319190)	2	92.7	67.2
37	H2bc21 (GeneID 319190)	3	96.8	63.9
38	Or1d2 (GeneID 258153)	1	24.3	21.3
39	Or1d2 (GeneID 258153)	2	87.7	91.7
40	Or1d2 (GeneID 258153)	3	89.5	68.3
41	Gm4425 (GeneID 100043416)	1	122 (active)	118
42	Gm4425 (GeneID 100043416)	2	65.5	57.4
43	Gm4425 (GeneID 100043416)	3	81.8	86.6
44	Klc3 (GeneID 232943)	1	68.9	73.9
45	Klc3 (GeneID 232943)	2	74.9	65.3
46	Klc3 (GeneID 232943)	3	129 (active)	84.4
47	Lpar1 (GeneID 14745)	1	82.3	105
48	Lpar1 (GeneID 14745)	2	48.8	85.1
49	Lpar1 (GeneID 14745)	3	65.9	62.8
50	Resp18 (GeneID 19711)	1	31.7	68.5
51	Resp18 (GeneID 19711)	2	73.6	70.8
52	Resp18 (GeneID 19711)	3	74.4	81.8
53	G6pc3 (GeneID 68401)	1	114	94.7
54	G6pc3 (GeneID 68401)	2	107	97.1
55	G6pc3 (GeneID 68401)	3	83.6	75.7
56	Ceacam14 (GeneID 67084)	1	78.4	63.6
57	Ceacam14 (GeneID 67084)	2	81.8	59.1
58	Ceacam14 (GeneID 67084)	3	97.8	89.7
59	Col3a1 (GeneID 12825)	1	66.1	80.3
60	Col3a1 (GeneID 12825)	2	90.3	67.9
61	Col3a1 (GeneID 12825)	3	58	37
62	Klra4 (GeneID 16635)	1	52.1	59.7
63	Klra4 (GeneID 16635)	2	143 (active)	50.1
64	Klra4 (GeneID 16635)	3	162 (active)	75.2
65	Ppcs (GeneID 106564)	1	80.8	52.5
66	Ppcs (GeneID 106564)	2	61	41.8
67	Ppcs (GeneID 106564)	3	75.2	63.2
68	Sell (GeneID 20343)	1	86	64.7
69	Sell (GeneID 20343)	2	98.1	70.5
70	Snx21 (GeneID 101113)	1	46.5	62.6
71	Snx21 (GeneID 101113)	2	90.4	91.6
72	Snx21 (GeneID 101113)	3	87.7	73.2
73	Fyb1 (GeneID 23880)	1	73.7	74.8
74	Fyb1 (GeneID 23880)	2	96.2	85.9
75	Fyb1 (GeneID 23880)	3	65	52.5
76	Ankrd7 (GeneID 75196)	1	56.3	96.5
77	Ankrd7 (GeneID 75196)	2	64.2	76.4
78	Ankrd7 (GeneID 75196)	3	59.6	50
79	Dmrt3 (GeneID 240590)	1	57.7	71.5
80	Dmrt3 (GeneID 240590)	2	60	80.9
81	Dmrt3 (GeneID 240590)	3	73	74.5
82	Fam81a (GeneID 76886)	1	57.9	77.8
83	Fam81a (GeneID 76886)	2	105	113
84	Fam81a (GeneID 76886)	3	99.9	131

Part of the list above in another layout:
target gene | siRNA no. | GFP, % of control | viability (ATP), % of control
Irag1 (GeneID 17540) | 2 | 76.1 | 93.5
Irag1 (GeneID 17540) | 3 | 78.3 | 60.1
Celsr3 (GeneID 107934) | 1 | 73.1 | 69.4
Celsr3 (GeneID 107934) | 2 | 71.8 | 81.5
Celsr3 (GeneID 107934) | 3 | 100 | 94.1
Aqp5 (GeneID 11830) | 1 | 83.2 | 73.2
Aqp5 (GeneID 11830) | 2 | 84.3 | 81.6
Aqp5 (GeneID 11830) | 3 | 154 (active) | 65.6
Mmp25 (GeneID 240047) | 1 | 66.8 | 76
Mmp25 (GeneID 240047) | 2 | 55.2 | 62.8
Hgs (GeneID 15239) | 1 | 134 (active) | 79.8
Hgs (GeneID 15239) | 2 | 59.8 | 49.4
Sprr2j-ps (GeneID 20764) | 1 | 80.9 | 46.9
